According to publication PMC7819943, “Rice protein-binding microarrays: a tool to detect cis-acting elements near promoter regions in rice”:
Some of the results follow.

Target: T1, OsSMF1 (Oryza sativa, UniProt Q6ZLB0 1-436)
T1 sequence: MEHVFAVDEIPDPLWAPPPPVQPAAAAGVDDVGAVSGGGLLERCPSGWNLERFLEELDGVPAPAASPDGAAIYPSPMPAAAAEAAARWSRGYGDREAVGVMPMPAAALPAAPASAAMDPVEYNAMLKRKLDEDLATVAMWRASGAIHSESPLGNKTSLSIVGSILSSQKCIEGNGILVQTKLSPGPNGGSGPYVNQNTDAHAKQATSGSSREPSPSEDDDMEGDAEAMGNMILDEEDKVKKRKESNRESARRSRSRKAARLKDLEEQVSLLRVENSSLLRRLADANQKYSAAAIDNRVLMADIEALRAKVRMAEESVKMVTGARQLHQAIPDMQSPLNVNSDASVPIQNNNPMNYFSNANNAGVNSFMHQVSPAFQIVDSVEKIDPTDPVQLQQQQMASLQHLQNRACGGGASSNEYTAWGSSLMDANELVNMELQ
Assay: protein-binding microarray (RPBM); PBS, 2% BSA, 51.3 ng/ul salmon testes DNA, 50 uM zinc acetate, 200 nM TF, 25 C, 1 h; high values mean tight binding
Details: protein: recombinant; tags: N-terminal polyhistidine and DsRed monomer fusion (pET32a); chain copies: 2; label: CyDye5-dUTP incorporated in the synthesized complementary strand; 3' TTTTT single-stranded linker to array surface; dsDNA, one strand shown
Method in brief: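 The binding signal is fluorescence intensity per array feature (arbitrary units). Readings came from an Axon 4000B scanner after a washed, 2% BSA-blocked, double-stranded custom Agilent array had been incubated for 1 h at 25 °C with 200 nM protein and 50 µM zinc acetate. The protein was a Ni–NTA-purified transcription factor fused N-terminally to polyhistidine and DsRed, expressed in E. coli BL21-CodonPlus.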

| Sequence | binding signal |
| --- | --- |
| CAAACCTGACCCTAGTTACCTATTTCTGACGCACATGATTCGGAGTCACCTAGTGCAG | 3290 fluorescence intensity (a.u.) |
| GATCGTAGGATGTGGTGTCATGTATAGTAGCCAACCCGGCCGGAGTCACCTAGTGCAG | 3530 fluorescence intensity (a.u.) |
| GAGAATAGTAGCGCCACGCCAACCGCCAAGCCTATGCTTTCGGAGTCACCTAGTGCAG | 5560 fluorescence intensity (a.u.) |
| CACCCAAGAACCGGTGGTATTCTTTGGACACGAGAACTTTCGGAGTCACCTAGTGCAG | 39100 fluorescence intensity (a.u.) |
| AAATTGAGTTGAAAATTTTCAAATCTCGACTTGAAAGTTTCGGAGTCACCTAGTGCAG | 21800 fluorescence intensity (a.u.) |
| CAAACTGTAGAAATATCAAGCACGTGTTACATAATCCCTGCGGAGTCACCTAGTGCAG | 4550 fluorescence intensity (a.u.) |
| GTACGCACACCAGGCCACCACCAAGAAACGATGGAGAAGGCGGAGTCACCTAGTGCAG | 3380 fluorescence intensity (a.u.) |
| TTTGATGACAATGTGATGAGATGTCTCCAAAGGAAGCCTACGGAGTCACCTAGTGCAG | 10400 fluorescence intensity (a.u.) |
| TGGCCAGGTCTAACGCTGACGTATAACGAATTGATCGATCCGGAGTCACCTAGTGCAG | 5080 fluorescence intensity (a.u.) |
| TTTAACCGGTCAACCGTCATCTTTCTCCTTGTGATCCCGTCGGAGTCACCTAGTGCAG | 4460 fluorescence intensity (a.u.) |
| ATTACTACCCACATATTGAATATCCACGCGTGCAGCAAGACGGAGTCACCTAGTGCAG | 3430 fluorescence intensity (a.u.) |
| GATTTCTTAACTATTTGCCACTTTTGTCTACGTGGCGTGCCGGAGTCACCTAGTGCAG | 17600 fluorescence intensity (a.u.) |
| AATATCGTTAAAGGTATATGTGTGTAGGCTTAAAAGGACGCGGAGTCACCTAGTGCAG | 27100 fluorescence intensity (a.u.) |
| AATCTGCATGTCTGGTAGGTCGTCACCGTCATCAGAAATCCGGAGTCACCTAGTGCAG | 5690 fluorescence intensity (a.u.) |
| ACCACATTCCACGTCACTACCACTCCACTCCACTCCACCACGGAGTCACCTAGTGCAG | 32300 fluorescence intensity (a.u.) |
| TTAATTAATCGATGAGAATCAATTTCATAATCATGGAGGTCGGAGTCACCTAGTGCAG | 3530 fluorescence intensity (a.u.) |
| ATTCCGATTTGATTGCAGAACTGATGTCAGATTCCGAATCCGGAGTCACCTAGTGCAG | 5520 fluorescence intensity (a.u.) |
| ATCTGTTACTTGCTCGAACCTTCGTGTACCAAGACTTGAGCGGAGTCACCTAGTGCAG | 35500 fluorescence intensity (a.u.) |
| GTGATCGCTGGTTTATCTAGCTGTGACTAGTCACGTCCATCGGAGTCACCTAGTGCAG | 5550 fluorescence intensity (a.u.) |
| ATGTTTCAGACACGATAGCAATATGTTTCAACACATGTTTCGGAGTCACCTAGTGCAG | 4500 fluorescence intensity (a.u.) |
| TACTCATGGATGCCACCGTGTCTGCACGAATTTCCCTACCCGGAGTCACCTAGTGCAG | 4020 fluorescence intensity (a.u.) |

| Sequence | binding signal |
| --- | --- |
| CCTCCTTTTCTTCTCCACGTATACAATCAGTCTAGTTGGACGGAGTCACCTAGTGCAG | 5040 fluorescence intensity (a.u.) |
| TACACATGTTGCCGATCTCCCAAAGGAAATAGGGAATCTTCGGAGTCACCTAGTGCAG | 3450 fluorescence intensity (a.u.) |
| TGGCAATTAATATCCTAAGTTGATCACTTAATTAAGCCATCGGAGTCACCTAGTGCAG | 7270 fluorescence intensity (a.u.) |
| GGTCCGTTCACAGGCTGGTCGGTGGCGTGGACGGCAGGAGCGGAGTCACCTAGTGCAG | 3930 fluorescence intensity (a.u.) |
| AATCAAACGTATGAATGACTAGCTACGATTTTATACACTTCGGAGTCACCTAGTGCAG | 5060 fluorescence intensity (a.u.) |
| AATTACCACGTAAGCGTCACGTCAACAACACGTTAGACAACGGAGTCACCTAGTGCAG | 8510 fluorescence intensity (a.u.) |
| TATTTTGACTTGGATGTTTTGCTTGTGACGCTAGCATTGGCGGAGTCACCTAGTGCAG | 4890 fluorescence intensity (a.u.) |
| TACTACTTATCCATGCGCTGGACTTTGTCAAAATACGATGCGGAGTCACCTAGTGCAG | 3330 fluorescence intensity (a.u.) |
| ATTTTGGTGGGATGTGACGCATCCTATTTGTACTCCCACCCGGAGTCACCTAGTGCAG | 5420 fluorescence intensity (a.u.) |
| AAATAGTGAAATGCGAGATGATACCGCCTATTTGCCACTCCGGAGTCACCTAGTGCAG | 21400 fluorescence intensity (a.u.) |
| TACTCGTTTTCTGCCTGATCATGCGATGGAGCCATCCTTACGGAGTCACCTAGTGCAG | 21800 fluorescence intensity (a.u.) |
| GATTACTGCATGCTAATCAGGAGAACACGTGTCACAGTGCCGGAGTCACCTAGTGCAG | 15900 fluorescence intensity (a.u.) |
| TGGTTCGCTCGGTGGGTGGTGGTGGTTCTGTGAGCCCGCGCGGAGTCACCTAGTGCAG | 3510 fluorescence intensity (a.u.) |
| TTGACCCTGATTTTATTTGACGCGGCTACTGAGTCAGCGTCGGAGTCACCTAGTGCAG | 15200 fluorescence intensity (a.u.) |
| TCGCGACCTCCACCGCCTGCGTCACACGCCACACCACATCCGGAGTCACCTAGTGCAG | 6840 fluorescence intensity (a.u.) |
| AACCCTCTTCAAGTACACGCGACACCGCTCGTCTTCGTCACGGAGTCACCTAGTGCAG | 3450 fluorescence intensity (a.u.) |
| GCTCCCAGGCGCGCCACCCCTTGCTCCTCGGCCACGCGGGCGGAGTCACCTAGTGCAG | 3260 fluorescence intensity (a.u.) |
| CATGTTTGAAATTTGAAAACAACAATATGTGTTCGTGTGTCGGAGTCACCTAGTGCAG | 29300 fluorescence intensity (a.u.) |
| AGATCCTAAACCGACCTAAGCAGTGGTGTGAATGGTGACTCGGAGTCACCTAGTGCAG | 4210 fluorescence intensity (a.u.) |
| TGTTAGTTTTGCATGCACAGAGATGATTAGGCAGTAGCAACGGAGTCACCTAGTGCAG | 3940 fluorescence intensity (a.u.) |
| TCATTTTAGCGTTGTGGTCATGGATGGCGTCCTTGATCACCGGAGTCACCTAGTGCAG | 4400 fluorescence intensity (a.u.) |

Three records picked at random from the list so far, as already listed:

| Sequence | binding signal |
| --- | --- |
| AATCAAACGTATGAATGACTAGCTACGATTTTATACACTTCGGAGTCACCTAGTGCAG | 5060 fluorescence intensity (a.u.) |
| TTGACCCTGATTTTATTTGACGCGGCTACTGAGTCAGCGTCGGAGTCACCTAGTGCAG | 15200 fluorescence intensity (a.u.) |
| TACTACTTATCCATGCGCTGGACTTTGTCAAAATACGATGCGGAGTCACCTAGTGCAG | 3330 fluorescence intensity (a.u.) |
